Experimental data taken from article PMC5996148.
Several values for one entry are separate records, joined by “and”; a condition that tells them apart may be missing. Equal values may be shown once. Some of the results follow. For some of these results: The source does not settle which construct or isoform was used.

Chains of the proteins cited; added tags and fusions are not shown.
UniProt Q9UIV1, whole entry: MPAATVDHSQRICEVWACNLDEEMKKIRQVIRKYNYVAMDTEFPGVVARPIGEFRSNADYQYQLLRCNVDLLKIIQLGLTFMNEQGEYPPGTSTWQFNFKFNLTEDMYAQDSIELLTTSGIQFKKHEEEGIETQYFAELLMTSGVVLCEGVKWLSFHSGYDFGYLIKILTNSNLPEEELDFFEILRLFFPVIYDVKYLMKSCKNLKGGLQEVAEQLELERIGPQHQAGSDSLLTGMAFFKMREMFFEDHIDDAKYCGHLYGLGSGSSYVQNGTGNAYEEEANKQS

Columns and labels:
Assay in all cases: protein microarray (ProtoArray v5.0), streptavidin-Alexa Fluor 647
Conditions in all cases: 3'-biotin; 20 mM Tris (pH 7.5), 5 mM MgCl2, 100 mM KCl, 0.1% Tween-20, A/T-rich and random oligonucleotide blockers; temperature not stated; high values mean tight binding
[1] = tested on: CMTM1 (human)
[2] = tested on: CNIH (human)
[3] = tested on: CNNM1 (human)
[4] = target: CNOT7 (UniProt Q9UIV1)
[5] = tested on: CNR2 (human)
[6] = tested on: CNTROB (human)
[7] = tested on: COASY (human)
[8] = tested on: COBRA1 (human)
[9] = tested on: COG8 (human)
[10] = tested on: COL14A1 (human)

What does the source list for “GGGAGGCTGAGGCAGG [G4-1 biotinylated (PQS2)]”?
binding signal [1]: -0.258 z-score; binding signal [2]: -0.334 z-score; binding signal [3]: -0.342 z-score; binding signal [4]: -0.341 z-score; binding signal [5]: -0.332 z-score; binding signal [6]: -0.314 z-score; binding signal [7]: -0.261 z-score and -0.325 z-score and -0.339 z-score; binding signal [8]: -0.334 z-score; binding signal [9]: -0.367 z-score; binding signal [10]: -0.312 z-score
